The supplement of paper PMC12823440, “Inhibitors supercharge kinase turnover through native proteolytic circuits” (Nature, 2025)
Where a name gives a salt, the structure may show the parent alone. The list shows a part of the results. Hit calls seldom repeat between salt and free forms of one compound.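 Kinases were expressed as nanoluciferase fusions in K562 cells and luminescence was read every 4 h between 2 and 18 h as percent of control, DMSO set to 100% and a positive control to 0%. A time point counts as decreased when the signal drops significantly (2 sigma). The hit call is the authors' own, does not follow from the count of time points alone, and its rule is not shown.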

Sequences of proteins named here, by UniProt entry; tags and fusion partners are left off. A change or cut given only in a name is not applied to a line headed by its entry.
UniProt P07949, whole entry, looked up: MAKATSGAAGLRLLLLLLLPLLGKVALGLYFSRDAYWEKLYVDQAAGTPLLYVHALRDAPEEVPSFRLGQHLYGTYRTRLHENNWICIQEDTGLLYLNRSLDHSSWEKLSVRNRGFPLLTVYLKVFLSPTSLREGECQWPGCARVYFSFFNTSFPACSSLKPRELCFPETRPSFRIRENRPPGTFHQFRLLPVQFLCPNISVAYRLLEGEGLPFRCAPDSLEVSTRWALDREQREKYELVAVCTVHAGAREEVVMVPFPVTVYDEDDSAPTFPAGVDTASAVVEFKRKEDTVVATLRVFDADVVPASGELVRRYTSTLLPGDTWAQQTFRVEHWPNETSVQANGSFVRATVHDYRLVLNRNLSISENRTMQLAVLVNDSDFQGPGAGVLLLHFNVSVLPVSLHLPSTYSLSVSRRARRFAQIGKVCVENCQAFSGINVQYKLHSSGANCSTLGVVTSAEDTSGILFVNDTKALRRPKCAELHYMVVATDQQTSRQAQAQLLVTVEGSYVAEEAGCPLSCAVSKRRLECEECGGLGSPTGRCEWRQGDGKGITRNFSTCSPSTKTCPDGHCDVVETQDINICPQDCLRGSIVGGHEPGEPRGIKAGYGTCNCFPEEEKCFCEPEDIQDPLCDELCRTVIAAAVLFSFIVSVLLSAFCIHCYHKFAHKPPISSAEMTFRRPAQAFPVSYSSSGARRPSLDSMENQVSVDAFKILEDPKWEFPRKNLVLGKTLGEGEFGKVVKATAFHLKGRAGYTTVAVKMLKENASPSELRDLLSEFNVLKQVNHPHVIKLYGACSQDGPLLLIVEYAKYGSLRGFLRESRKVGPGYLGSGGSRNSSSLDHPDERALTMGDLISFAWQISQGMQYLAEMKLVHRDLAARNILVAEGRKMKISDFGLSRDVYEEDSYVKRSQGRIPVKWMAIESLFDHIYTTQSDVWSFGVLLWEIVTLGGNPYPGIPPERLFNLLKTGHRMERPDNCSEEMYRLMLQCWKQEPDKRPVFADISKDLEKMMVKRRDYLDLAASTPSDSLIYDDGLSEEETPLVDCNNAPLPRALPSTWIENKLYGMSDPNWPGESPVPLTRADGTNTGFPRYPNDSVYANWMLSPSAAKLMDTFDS
UniProt P07949, whole entry M918T, looked up: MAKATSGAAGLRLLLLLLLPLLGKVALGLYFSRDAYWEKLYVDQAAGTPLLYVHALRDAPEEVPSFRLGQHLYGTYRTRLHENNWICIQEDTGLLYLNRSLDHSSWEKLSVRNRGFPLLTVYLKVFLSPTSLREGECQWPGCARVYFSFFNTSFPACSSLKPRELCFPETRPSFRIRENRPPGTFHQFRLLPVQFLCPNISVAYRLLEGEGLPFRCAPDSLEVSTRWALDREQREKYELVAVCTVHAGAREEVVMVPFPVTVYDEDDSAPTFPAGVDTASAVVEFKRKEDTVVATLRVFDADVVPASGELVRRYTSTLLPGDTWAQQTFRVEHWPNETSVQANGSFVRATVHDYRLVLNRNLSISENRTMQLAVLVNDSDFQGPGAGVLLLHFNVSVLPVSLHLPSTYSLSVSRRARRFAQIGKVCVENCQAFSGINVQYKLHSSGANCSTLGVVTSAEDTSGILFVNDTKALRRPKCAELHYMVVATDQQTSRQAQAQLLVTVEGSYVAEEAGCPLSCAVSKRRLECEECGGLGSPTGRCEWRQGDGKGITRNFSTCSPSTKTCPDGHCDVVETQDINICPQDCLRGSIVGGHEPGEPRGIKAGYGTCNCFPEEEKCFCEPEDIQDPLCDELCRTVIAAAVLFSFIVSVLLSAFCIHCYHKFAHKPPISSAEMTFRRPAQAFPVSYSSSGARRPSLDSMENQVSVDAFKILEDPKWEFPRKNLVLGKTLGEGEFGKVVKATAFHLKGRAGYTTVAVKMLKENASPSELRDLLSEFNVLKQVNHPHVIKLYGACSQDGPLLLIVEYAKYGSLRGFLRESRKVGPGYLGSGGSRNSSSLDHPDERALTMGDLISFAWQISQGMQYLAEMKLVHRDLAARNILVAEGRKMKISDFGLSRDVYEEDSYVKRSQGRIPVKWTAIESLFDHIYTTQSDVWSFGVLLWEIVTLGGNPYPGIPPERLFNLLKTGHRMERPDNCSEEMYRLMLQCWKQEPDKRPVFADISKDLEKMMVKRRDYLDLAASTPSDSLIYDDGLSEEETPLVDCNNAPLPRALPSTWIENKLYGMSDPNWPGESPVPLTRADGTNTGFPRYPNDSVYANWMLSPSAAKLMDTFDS
UniProt Q13546: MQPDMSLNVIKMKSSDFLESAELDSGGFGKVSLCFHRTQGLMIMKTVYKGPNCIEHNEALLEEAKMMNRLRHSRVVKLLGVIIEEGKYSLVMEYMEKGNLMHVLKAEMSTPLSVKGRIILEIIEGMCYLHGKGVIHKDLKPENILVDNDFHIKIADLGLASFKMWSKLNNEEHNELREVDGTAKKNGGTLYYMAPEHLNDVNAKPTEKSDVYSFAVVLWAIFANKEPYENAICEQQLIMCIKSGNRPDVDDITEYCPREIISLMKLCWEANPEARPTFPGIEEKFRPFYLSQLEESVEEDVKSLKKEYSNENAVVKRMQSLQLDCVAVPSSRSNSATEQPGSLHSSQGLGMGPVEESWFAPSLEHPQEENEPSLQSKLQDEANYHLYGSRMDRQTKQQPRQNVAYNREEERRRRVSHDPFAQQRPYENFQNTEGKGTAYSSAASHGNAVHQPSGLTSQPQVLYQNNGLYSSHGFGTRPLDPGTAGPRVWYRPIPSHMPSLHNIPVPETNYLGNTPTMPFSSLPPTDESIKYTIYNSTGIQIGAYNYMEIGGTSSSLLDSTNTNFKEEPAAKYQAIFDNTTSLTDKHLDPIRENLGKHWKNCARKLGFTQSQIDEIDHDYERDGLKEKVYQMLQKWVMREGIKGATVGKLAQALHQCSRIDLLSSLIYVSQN
UniProt Q15418, whole entry: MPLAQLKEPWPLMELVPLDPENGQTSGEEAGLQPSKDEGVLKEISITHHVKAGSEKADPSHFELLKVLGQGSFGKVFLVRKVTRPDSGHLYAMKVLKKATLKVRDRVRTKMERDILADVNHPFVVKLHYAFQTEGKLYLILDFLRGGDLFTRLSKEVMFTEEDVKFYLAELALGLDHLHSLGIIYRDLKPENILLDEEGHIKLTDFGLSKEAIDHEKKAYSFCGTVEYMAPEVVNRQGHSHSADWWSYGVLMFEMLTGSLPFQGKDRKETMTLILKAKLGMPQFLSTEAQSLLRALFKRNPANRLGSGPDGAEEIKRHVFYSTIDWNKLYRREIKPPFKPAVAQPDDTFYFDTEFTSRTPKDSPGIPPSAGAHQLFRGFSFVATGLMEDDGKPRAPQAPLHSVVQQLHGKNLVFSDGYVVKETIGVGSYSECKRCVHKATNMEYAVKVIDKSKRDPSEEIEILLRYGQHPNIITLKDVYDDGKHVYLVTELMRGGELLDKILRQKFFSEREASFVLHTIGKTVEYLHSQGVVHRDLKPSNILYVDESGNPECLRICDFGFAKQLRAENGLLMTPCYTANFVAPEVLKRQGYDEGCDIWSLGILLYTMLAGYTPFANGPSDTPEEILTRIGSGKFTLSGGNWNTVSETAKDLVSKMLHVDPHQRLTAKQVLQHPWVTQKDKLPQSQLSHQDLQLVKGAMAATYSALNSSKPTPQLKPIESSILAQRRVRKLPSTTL
UniProt Q9NYA1, whole entry: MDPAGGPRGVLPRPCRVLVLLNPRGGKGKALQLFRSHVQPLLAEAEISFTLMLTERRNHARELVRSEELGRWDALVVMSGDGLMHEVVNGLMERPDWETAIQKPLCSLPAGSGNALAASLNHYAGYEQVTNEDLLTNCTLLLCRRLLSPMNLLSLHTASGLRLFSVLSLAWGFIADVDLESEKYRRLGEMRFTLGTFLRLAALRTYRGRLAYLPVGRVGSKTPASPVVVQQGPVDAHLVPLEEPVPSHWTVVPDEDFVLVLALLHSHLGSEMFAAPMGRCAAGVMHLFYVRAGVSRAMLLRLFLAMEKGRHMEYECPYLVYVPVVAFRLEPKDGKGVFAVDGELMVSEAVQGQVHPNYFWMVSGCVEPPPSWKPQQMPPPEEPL
UniProt Q15208: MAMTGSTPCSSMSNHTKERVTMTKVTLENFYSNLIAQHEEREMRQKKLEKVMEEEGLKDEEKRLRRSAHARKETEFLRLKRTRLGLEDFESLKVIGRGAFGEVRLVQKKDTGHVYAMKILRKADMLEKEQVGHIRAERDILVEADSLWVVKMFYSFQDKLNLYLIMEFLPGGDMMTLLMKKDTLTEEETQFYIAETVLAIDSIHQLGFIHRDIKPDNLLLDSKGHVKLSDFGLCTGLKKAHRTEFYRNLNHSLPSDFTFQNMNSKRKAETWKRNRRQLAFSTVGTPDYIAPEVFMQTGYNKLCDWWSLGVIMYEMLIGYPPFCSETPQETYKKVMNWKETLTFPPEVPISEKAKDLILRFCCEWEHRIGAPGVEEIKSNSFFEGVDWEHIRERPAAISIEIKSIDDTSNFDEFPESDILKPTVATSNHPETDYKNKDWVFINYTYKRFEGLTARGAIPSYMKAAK
UniProt P29597: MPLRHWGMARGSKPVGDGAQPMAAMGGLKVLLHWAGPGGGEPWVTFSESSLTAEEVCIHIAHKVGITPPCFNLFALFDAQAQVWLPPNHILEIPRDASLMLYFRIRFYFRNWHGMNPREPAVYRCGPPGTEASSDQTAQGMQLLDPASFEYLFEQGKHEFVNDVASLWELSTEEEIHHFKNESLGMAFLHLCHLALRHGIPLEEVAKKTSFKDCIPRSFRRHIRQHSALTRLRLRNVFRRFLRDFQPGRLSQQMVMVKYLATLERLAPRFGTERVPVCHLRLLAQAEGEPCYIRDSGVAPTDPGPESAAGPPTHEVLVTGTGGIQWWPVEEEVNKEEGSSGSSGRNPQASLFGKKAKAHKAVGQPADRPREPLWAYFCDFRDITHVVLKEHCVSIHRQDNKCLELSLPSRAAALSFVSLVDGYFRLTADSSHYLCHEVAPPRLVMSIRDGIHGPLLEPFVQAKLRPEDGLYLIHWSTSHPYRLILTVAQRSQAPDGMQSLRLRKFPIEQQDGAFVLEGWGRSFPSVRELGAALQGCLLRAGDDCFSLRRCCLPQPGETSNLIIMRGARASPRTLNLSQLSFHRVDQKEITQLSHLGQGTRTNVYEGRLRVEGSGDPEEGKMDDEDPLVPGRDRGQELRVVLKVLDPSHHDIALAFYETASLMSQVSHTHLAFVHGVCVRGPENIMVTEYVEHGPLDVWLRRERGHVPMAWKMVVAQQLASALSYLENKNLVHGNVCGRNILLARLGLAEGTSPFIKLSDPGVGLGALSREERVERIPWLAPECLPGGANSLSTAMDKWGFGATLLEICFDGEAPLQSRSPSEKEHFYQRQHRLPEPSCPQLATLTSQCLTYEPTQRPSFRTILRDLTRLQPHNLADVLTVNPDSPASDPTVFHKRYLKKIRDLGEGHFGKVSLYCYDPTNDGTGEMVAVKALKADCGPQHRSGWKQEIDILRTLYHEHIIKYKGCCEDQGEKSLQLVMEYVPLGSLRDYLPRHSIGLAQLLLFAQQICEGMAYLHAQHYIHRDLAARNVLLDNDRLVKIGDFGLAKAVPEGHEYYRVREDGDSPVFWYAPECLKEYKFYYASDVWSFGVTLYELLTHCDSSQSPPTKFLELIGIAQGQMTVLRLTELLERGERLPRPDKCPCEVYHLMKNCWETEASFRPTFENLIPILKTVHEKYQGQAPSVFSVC
UniProt P07947, whole entry, looked up: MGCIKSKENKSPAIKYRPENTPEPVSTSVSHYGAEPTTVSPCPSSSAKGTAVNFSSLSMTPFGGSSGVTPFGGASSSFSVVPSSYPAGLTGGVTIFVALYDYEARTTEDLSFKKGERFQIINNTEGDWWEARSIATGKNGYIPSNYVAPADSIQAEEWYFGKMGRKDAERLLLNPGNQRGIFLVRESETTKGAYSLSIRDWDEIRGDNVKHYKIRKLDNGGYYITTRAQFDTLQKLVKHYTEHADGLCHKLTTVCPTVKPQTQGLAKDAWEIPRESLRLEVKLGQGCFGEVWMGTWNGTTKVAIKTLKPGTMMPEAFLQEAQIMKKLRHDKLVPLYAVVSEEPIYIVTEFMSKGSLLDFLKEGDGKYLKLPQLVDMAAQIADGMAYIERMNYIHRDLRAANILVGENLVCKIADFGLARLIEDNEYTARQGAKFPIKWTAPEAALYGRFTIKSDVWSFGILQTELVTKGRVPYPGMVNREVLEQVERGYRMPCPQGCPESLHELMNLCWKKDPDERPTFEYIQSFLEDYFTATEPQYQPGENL

Assays:
Details in all cases: K562; 2-18 h
RET = RET (UniProt P07949); assay: kinase-Nluc reporter destabilization hit call (1 = scored as downregulated) (binary); higher = compound decreases kinase abundance
[1] = molecular target: RET_M918T (clone: RET_mut) (UniProt P07949); assay: as above
RIOK1 = RIOK1 (UniProt Q9BRS2); assay: as above
RIPK1 = RIPK1 (UniProt Q13546); assay: as above
RIPK2 = RIPK2 (UniProt O43353); assay: as above
ROR2 = ROR2 (UniProt Q01974); assay: as above
RPS6KA1 = RPS6KA1 (UniProt Q15418); assay: as above
SPHK1 = SPHK1 (UniProt Q9NYA1); assay: as above
SRC = SRC (UniProt P12931); assay: as above
STK24 = STK24 (UniProt Q9Y6E0); assay: as above
STK38 = STK38 (UniProt Q15208); assay: as above
SYK = SYK (UniProt P43405); assay: as above
TEC = TEC (UniProt P42680); assay: as above
TYK2 = TYK2 (UniProt P29597); assay: as above
ULK3 = ULK3 (UniProt Q6PHR2); assay: as above
YES1 = YES1 (UniProt P07947); assay: as above
ZAK = ZAK (UniProt Q9NYL2); assay: as above
ZAP70 = ZAP70 (UniProt P43403); assay: as above
ABL1 = ABL1 (UniProt P00519); assay: number of time points (of 5) at which kinase-Nluc abundance scored as decreased, DMSO-normalised (count); higher = more persistent destabilization
AKT1 = AKT1 (UniProt P31749); assay: as above

Cc1ccccc1-n1c([C@H](C)Nc2nc(N)nc3nc[nH]c23)nc2cccc(C)c2c1=O [CAL-130 (Hydrochloride)] (10 µM)
0: number of time points (ABL1) | number of time points (AKT1)
inactive: kinase-Nluc reporter destabilization hit call (RET) 0 | kinase-Nluc reporter destabilization hit call [1] 0 | kinase-Nluc reporter destabilization hit call (RIOK1) 0 | kinase-Nluc reporter destabilization hit call (RIPK1) 0 | kinase-Nluc reporter destabilization hit call (RIPK2) 0 | kinase-Nluc reporter destabilization hit call (ROR2) 0 | kinase-Nluc reporter destabilization hit call (RPS6KA1) 0 | kinase-Nluc reporter destabilization hit call (SPHK1) 0 | kinase-Nluc reporter destabilization hit call (SRC) 0 | kinase-Nluc reporter destabilization hit call (STK24) 0 | kinase-Nluc reporter destabilization hit call (STK38) 0 | kinase-Nluc reporter destabilization hit call (SYK) 0 | kinase-Nluc reporter destabilization hit call (TEC) 0 | kinase-Nluc reporter destabilization hit call (TYK2) 0 | kinase-Nluc reporter destabilization hit call (ULK3) 0 | kinase-Nluc reporter destabilization hit call (YES1) 0 | kinase-Nluc reporter destabilization hit call (ZAK) 0 | kinase-Nluc reporter destabilization hit call (ZAP70) 0

CC#CC(=O)N1CC[C@@H](n2c(=O)n(-c3ccc(Oc4ccccc4)cc3)c3c(N)ncnc32)C1 [Tirabrutinib] (10 µM)
inactive: kinase-Nluc reporter destabilization hit call (RET) 0 | kinase-Nluc reporter destabilization hit call [1] 0 | kinase-Nluc reporter destabilization hit call (RIOK1) 0 | kinase-Nluc reporter destabilization hit call (RIPK1) 0 | kinase-Nluc reporter destabilization hit call (RIPK2) 0 | kinase-Nluc reporter destabilization hit call (ROR2) 0 | kinase-Nluc reporter destabilization hit call (RPS6KA1) 0 | kinase-Nluc reporter destabilization hit call (SPHK1) 0 | kinase-Nluc reporter destabilization hit call (SRC) 0 | kinase-Nluc reporter destabilization hit call (STK24) 0 | kinase-Nluc reporter destabilization hit call (STK38) 0 | kinase-Nluc reporter destabilization hit call (SYK) 0 | kinase-Nluc reporter destabilization hit call (TEC) 0 | kinase-Nluc reporter destabilization hit call (TYK2) 0 | kinase-Nluc reporter destabilization hit call (ULK3) 0 | kinase-Nluc reporter destabilization hit call (YES1) 0 | kinase-Nluc reporter destabilization hit call (ZAK) 0 | kinase-Nluc reporter destabilization hit call (ZAP70) 0
0: number of time points (ABL1) | number of time points (AKT1)

O=C(N/N=C/c1coc2ccccc2c1=O)c1cccnc1 (10 µM)
0: number of time points (ABL1) | number of time points (AKT1)
inactive: kinase-Nluc reporter destabilization hit call (RET) 0 | kinase-Nluc reporter destabilization hit call [1] 0 | kinase-Nluc reporter destabilization hit call (RIOK1) 0 | kinase-Nluc reporter destabilization hit call (RIPK1) 0 | kinase-Nluc reporter destabilization hit call (RIPK2) 0 | kinase-Nluc reporter destabilization hit call (ROR2) 0 | kinase-Nluc reporter destabilization hit call (RPS6KA1) 0 | kinase-Nluc reporter destabilization hit call (SPHK1) 0 | kinase-Nluc reporter destabilization hit call (SRC) 0 | kinase-Nluc reporter destabilization hit call (STK24) 0 | kinase-Nluc reporter destabilization hit call (STK38) 0 | kinase-Nluc reporter destabilization hit call (SYK) 0 | kinase-Nluc reporter destabilization hit call (TEC) 0 | kinase-Nluc reporter destabilization hit call (TYK2) 0 | kinase-Nluc reporter destabilization hit call (ULK3) 0 | kinase-Nluc reporter destabilization hit call (YES1) 0 | kinase-Nluc reporter destabilization hit call (ZAK) 0 | kinase-Nluc reporter destabilization hit call (ZAP70) 0

Cc1[nH]c(/C=C2\C(=O)Nc3ccccc32)c(C)c1CCC(=O)O [Orantinib] (10 µM)
0: number of time points (ABL1) | number of time points (AKT1)
inactive: kinase-Nluc reporter destabilization hit call (RET) 0 | kinase-Nluc reporter destabilization hit call [1] 0 | kinase-Nluc reporter destabilization hit call (RIOK1) 0 | kinase-Nluc reporter destabilization hit call (RIPK1) 0 | kinase-Nluc reporter destabilization hit call (RIPK2) 0 | kinase-Nluc reporter destabilization hit call (ROR2) 0 | kinase-Nluc reporter destabilization hit call (SPHK1) 0 | kinase-Nluc reporter destabilization hit call (SRC) 0 | kinase-Nluc reporter destabilization hit call (STK24) 0 | kinase-Nluc reporter destabilization hit call (STK38) 0 | kinase-Nluc reporter destabilization hit call (SYK) 0 | kinase-Nluc reporter destabilization hit call (TEC) 0 | kinase-Nluc reporter destabilization hit call (TYK2) 0 | kinase-Nluc reporter destabilization hit call (ULK3) 0 | kinase-Nluc reporter destabilization hit call (YES1) 0 | kinase-Nluc reporter destabilization hit call (ZAK) 0 | kinase-Nluc reporter destabilization hit call (ZAP70) 0

Cc1c(NC(=O)c2cccn(-c3ccc(F)cc3)c2=O)ccc(Oc2ccnc(NC(=O)C3CC3)c2)c1C (2 µM)
inactive: kinase-Nluc reporter destabilization hit call (RET) 0 | kinase-Nluc reporter destabilization hit call [1] 0 | kinase-Nluc reporter destabilization hit call (RIOK1) 0 | kinase-Nluc reporter destabilization hit call (RIPK1) 0 | kinase-Nluc reporter destabilization hit call (RIPK2) 0 | kinase-Nluc reporter destabilization hit call (ROR2) 0 | kinase-Nluc reporter destabilization hit call (RPS6KA1) 0 | kinase-Nluc reporter destabilization hit call (SPHK1) 0 | kinase-Nluc reporter destabilization hit call (SRC) 0 | kinase-Nluc reporter destabilization hit call (STK24) 0 | kinase-Nluc reporter destabilization hit call (STK38) 0 | kinase-Nluc reporter destabilization hit call (SYK) 0 | kinase-Nluc reporter destabilization hit call (TEC) 0 | kinase-Nluc reporter destabilization hit call (TYK2) 0 | kinase-Nluc reporter destabilization hit call (ULK3) 0 | kinase-Nluc reporter destabilization hit call (YES1) 0 | kinase-Nluc reporter destabilization hit call (ZAK) 0 | kinase-Nluc reporter destabilization hit call (ZAP70) 0
1: number of time points (ABL1)
0: number of time points (AKT1)

COc1cc2ncc(-c3ccccc3)nc2cc1OC [Tyrphostin AG1296] (10 µM)
inactive: kinase-Nluc reporter destabilization hit call (RET) 0 | kinase-Nluc reporter destabilization hit call [1] 0 | kinase-Nluc reporter destabilization hit call (RIOK1) 0 | kinase-Nluc reporter destabilization hit call (RIPK1) 0 | kinase-Nluc reporter destabilization hit call (RIPK2) 0 | kinase-Nluc reporter destabilization hit call (ROR2) 0 | kinase-Nluc reporter destabilization hit call (RPS6KA1) 0 | kinase-Nluc reporter destabilization hit call (SPHK1) 0 | kinase-Nluc reporter destabilization hit call (SRC) 0 | kinase-Nluc reporter destabilization hit call (STK24) 0 | kinase-Nluc reporter destabilization hit call (STK38) 0 | kinase-Nluc reporter destabilization hit call (SYK) 0 | kinase-Nluc reporter destabilization hit call (TEC) 0 | kinase-Nluc reporter destabilization hit call (TYK2) 0 | kinase-Nluc reporter destabilization hit call (ULK3) 0 | kinase-Nluc reporter destabilization hit call (YES1) 0 | kinase-Nluc reporter destabilization hit call (ZAK) 0 | kinase-Nluc reporter destabilization hit call (ZAP70) 0
0: number of time points (ABL1) | number of time points (AKT1)

FC(F)(F)c1ccc(CNc2ccc(Cc3c[nH]c4ncccc34)cn2)cc1 (10 µM)
inactive: kinase-Nluc reporter destabilization hit call (RET) 0 | kinase-Nluc reporter destabilization hit call [1] 0 | kinase-Nluc reporter destabilization hit call (RIOK1) 0 | kinase-Nluc reporter destabilization hit call (RIPK1) 0 | kinase-Nluc reporter destabilization hit call (RIPK2) 0 | kinase-Nluc reporter destabilization hit call (ROR2) 0 | kinase-Nluc reporter destabilization hit call (RPS6KA1) 0 | kinase-Nluc reporter destabilization hit call (SPHK1) 0 | kinase-Nluc reporter destabilization hit call (SRC) 0 | kinase-Nluc reporter destabilization hit call (STK24) 0 | kinase-Nluc reporter destabilization hit call (STK38) 0 | kinase-Nluc reporter destabilization hit call (SYK) 0 | kinase-Nluc reporter destabilization hit call (TEC) 0 | kinase-Nluc reporter destabilization hit call (TYK2) 0 | kinase-Nluc reporter destabilization hit call (ULK3) 0 | kinase-Nluc reporter destabilization hit call (YES1) 0 | kinase-Nluc reporter destabilization hit call (ZAK) 0 | kinase-Nluc reporter destabilization hit call (ZAP70) 0
0: number of time points (ABL1) | number of time points (AKT1)

N#CCC1CCN(c2nc(Nc3ccc(N4CCC(O)CC4)cc3)c3c(=O)[nH]ncc3n2)CC1 [Gusacitinib] (10 µM)
0: number of time points (AKT1)
inactive: kinase-Nluc reporter destabilization hit call (RET) 0 | kinase-Nluc reporter destabilization hit call [1] 0 | kinase-Nluc reporter destabilization hit call (RIOK1) 0 | kinase-Nluc reporter destabilization hit call (RIPK1) 0 | kinase-Nluc reporter destabilization hit call (RIPK2) 0 | kinase-Nluc reporter destabilization hit call (ROR2) 0 | kinase-Nluc reporter destabilization hit call (RPS6KA1) 0 | kinase-Nluc reporter destabilization hit call (SPHK1) 0 | kinase-Nluc reporter destabilization hit call (SRC) 0 | kinase-Nluc reporter destabilization hit call (STK24) 0 | kinase-Nluc reporter destabilization hit call (STK38) 0 | kinase-Nluc reporter destabilization hit call (SYK) 0 | kinase-Nluc reporter destabilization hit call (TEC) 0 | kinase-Nluc reporter destabilization hit call (TYK2) 0 | kinase-Nluc reporter destabilization hit call (ULK3) 0 | kinase-Nluc reporter destabilization hit call (YES1) 0 | kinase-Nluc reporter destabilization hit call (ZAK) 0 | kinase-Nluc reporter destabilization hit call (ZAP70) 0
4: number of time points (ABL1)

CC#CC(=O)N1CC[C@@H](n2c(=O)n(-c3ccc(Oc4ccccc4)cc3)c3c(N)ncnc32)C1 [Tirabrutinib (hydrochloride)] (10 µM)
0: number of time points (ABL1) | number of time points (AKT1)
inactive: kinase-Nluc reporter destabilization hit call (RET) 0 | kinase-Nluc reporter destabilization hit call [1] 0 | kinase-Nluc reporter destabilization hit call (RIOK1) 0 | kinase-Nluc reporter destabilization hit call (RIPK1) 0 | kinase-Nluc reporter destabilization hit call (RIPK2) 0 | kinase-Nluc reporter destabilization hit call (ROR2) 0 | kinase-Nluc reporter destabilization hit call (RPS6KA1) 0 | kinase-Nluc reporter destabilization hit call (SPHK1) 0 | kinase-Nluc reporter destabilization hit call (SRC) 0 | kinase-Nluc reporter destabilization hit call (STK24) 0 | kinase-Nluc reporter destabilization hit call (STK38) 0 | kinase-Nluc reporter destabilization hit call (SYK) 0 | kinase-Nluc reporter destabilization hit call (TEC) 0 | kinase-Nluc reporter destabilization hit call (TYK2) 0 | kinase-Nluc reporter destabilization hit call (ULK3) 0 | kinase-Nluc reporter destabilization hit call (YES1) 0 | kinase-Nluc reporter destabilization hit call (ZAK) 0 | kinase-Nluc reporter destabilization hit call (ZAP70) 0
